In the supplement of paper PMC10849652:
This is one part of the list.

Protein sequences, listed by entry. Tags and fused reporters are not part of them. Lines headed by an entry give the natural chain unless they say otherwise; changes in a name come on top.
UniProt P40227, whole entry, looked up: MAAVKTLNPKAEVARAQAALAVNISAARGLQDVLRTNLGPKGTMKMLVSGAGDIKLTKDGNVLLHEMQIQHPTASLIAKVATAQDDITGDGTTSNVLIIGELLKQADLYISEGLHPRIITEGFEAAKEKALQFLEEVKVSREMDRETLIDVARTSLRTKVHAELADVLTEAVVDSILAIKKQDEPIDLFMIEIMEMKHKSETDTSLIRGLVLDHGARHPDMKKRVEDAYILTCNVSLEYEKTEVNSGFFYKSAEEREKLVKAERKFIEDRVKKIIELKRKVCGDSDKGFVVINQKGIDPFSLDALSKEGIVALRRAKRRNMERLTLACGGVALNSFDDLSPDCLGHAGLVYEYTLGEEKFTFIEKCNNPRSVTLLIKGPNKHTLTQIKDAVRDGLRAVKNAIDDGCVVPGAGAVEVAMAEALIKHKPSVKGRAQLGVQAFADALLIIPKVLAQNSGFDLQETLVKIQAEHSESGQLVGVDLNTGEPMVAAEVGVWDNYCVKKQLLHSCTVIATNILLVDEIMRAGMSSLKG
UniProt Q8IWD4: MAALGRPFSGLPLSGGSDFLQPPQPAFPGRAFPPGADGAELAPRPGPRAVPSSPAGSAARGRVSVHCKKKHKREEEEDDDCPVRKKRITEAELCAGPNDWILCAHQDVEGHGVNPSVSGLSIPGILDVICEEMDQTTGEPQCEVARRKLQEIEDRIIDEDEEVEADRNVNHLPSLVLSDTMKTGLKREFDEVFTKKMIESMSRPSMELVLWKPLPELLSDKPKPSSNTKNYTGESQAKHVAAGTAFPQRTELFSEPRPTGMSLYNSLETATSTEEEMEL
UniProt P08962, whole entry, looked up: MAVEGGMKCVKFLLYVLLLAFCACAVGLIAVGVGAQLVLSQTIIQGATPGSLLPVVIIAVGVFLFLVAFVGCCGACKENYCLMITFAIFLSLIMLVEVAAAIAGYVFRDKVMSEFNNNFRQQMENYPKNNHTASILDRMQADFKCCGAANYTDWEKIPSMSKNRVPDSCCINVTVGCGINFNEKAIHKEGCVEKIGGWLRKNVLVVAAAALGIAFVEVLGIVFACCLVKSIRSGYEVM
UniProt Q8WUD4: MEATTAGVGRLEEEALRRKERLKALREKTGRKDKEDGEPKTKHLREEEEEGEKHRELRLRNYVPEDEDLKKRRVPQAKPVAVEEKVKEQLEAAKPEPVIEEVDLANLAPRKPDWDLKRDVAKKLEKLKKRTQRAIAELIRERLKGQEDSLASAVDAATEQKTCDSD
UniProt P45973, whole entry, looked up: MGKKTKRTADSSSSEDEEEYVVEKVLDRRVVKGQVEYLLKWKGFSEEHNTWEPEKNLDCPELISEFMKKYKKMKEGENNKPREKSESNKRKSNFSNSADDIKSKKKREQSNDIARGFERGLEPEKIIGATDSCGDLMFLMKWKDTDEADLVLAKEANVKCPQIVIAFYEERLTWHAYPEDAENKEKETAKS
UniProt Q13185: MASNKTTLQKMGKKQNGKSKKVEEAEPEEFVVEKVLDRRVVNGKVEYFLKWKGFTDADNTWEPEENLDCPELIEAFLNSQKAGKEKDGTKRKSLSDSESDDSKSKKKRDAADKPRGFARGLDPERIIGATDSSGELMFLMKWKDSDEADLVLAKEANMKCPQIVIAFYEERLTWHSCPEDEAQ
UniProt Q96NT0: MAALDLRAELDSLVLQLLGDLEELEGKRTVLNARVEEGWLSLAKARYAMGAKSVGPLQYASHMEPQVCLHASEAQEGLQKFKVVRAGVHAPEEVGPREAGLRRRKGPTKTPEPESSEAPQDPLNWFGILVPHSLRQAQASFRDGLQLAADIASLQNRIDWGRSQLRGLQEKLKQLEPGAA
UniProt Q96A33: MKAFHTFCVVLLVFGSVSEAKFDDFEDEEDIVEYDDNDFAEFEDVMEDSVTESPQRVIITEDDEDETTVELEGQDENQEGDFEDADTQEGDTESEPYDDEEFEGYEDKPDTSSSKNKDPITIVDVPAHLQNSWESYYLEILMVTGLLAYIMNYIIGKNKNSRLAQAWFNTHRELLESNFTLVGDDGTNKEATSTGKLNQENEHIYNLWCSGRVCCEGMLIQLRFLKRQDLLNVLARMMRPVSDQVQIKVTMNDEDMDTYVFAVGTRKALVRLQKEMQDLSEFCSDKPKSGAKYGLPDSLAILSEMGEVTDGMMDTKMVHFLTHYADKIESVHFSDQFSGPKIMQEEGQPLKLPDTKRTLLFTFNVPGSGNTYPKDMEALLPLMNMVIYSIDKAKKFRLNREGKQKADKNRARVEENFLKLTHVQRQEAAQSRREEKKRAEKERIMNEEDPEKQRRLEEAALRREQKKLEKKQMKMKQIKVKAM
UniProt Q5RIA9: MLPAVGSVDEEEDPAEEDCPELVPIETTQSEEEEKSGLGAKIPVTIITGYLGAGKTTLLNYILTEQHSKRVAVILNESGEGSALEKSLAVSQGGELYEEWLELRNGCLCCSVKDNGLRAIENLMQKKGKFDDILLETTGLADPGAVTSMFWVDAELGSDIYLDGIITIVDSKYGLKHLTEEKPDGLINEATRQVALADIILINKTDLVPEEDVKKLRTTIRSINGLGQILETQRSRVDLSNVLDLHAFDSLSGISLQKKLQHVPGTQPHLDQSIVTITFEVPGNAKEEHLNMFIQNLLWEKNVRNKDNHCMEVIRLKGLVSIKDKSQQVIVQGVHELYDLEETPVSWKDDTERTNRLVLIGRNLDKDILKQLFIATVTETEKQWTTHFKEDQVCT
UniProt Q9H6E4: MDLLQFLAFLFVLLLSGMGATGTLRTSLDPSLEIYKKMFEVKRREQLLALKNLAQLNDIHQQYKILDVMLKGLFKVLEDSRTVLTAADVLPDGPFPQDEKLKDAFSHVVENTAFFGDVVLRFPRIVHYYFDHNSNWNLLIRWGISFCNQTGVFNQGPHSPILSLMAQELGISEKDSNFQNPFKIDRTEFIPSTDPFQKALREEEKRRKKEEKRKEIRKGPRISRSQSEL
UniProt Q9BUN5: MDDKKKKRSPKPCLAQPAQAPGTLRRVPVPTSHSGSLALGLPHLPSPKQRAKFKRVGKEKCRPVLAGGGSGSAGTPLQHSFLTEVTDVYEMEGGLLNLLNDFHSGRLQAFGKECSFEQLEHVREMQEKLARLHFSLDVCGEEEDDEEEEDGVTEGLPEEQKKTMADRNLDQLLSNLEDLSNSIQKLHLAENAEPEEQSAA
UniProt Q4G0I0: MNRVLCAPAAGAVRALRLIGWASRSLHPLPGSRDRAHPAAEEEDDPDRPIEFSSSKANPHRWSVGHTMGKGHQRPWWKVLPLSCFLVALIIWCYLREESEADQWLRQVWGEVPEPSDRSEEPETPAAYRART
UniProt P49589: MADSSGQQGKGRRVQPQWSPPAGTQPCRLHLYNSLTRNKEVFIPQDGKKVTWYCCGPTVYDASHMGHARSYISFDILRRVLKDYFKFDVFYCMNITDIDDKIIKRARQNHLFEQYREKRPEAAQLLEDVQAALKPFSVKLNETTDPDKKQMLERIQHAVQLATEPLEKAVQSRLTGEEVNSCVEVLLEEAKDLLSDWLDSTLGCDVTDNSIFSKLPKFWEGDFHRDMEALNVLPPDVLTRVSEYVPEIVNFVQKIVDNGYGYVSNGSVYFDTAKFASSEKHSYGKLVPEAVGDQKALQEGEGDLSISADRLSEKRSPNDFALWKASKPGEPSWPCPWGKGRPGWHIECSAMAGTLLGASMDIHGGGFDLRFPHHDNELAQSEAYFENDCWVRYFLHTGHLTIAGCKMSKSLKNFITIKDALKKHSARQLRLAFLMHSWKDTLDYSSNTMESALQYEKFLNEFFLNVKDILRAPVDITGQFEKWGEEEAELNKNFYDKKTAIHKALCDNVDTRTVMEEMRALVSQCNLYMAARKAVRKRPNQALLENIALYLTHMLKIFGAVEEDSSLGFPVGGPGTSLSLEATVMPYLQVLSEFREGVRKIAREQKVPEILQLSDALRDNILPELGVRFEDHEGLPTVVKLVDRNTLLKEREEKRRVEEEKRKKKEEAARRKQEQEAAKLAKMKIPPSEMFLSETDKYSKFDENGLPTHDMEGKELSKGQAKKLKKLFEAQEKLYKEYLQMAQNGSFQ
UniProt Q8N7R7: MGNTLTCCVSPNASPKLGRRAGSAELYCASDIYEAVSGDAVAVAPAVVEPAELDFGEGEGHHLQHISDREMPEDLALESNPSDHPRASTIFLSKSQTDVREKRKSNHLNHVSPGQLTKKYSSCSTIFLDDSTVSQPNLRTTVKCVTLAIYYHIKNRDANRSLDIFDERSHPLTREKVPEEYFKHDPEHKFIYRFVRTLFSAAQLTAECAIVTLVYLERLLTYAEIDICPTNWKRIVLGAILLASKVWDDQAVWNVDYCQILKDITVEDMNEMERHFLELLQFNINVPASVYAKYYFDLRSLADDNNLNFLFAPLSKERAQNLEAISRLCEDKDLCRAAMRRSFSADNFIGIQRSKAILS
UniProt Q86WR0: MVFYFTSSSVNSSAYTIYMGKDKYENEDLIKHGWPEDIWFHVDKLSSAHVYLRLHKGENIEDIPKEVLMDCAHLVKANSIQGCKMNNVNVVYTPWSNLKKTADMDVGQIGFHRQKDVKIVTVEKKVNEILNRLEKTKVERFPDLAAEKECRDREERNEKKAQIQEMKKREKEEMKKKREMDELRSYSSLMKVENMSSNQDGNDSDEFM
UniProt Q8ND76: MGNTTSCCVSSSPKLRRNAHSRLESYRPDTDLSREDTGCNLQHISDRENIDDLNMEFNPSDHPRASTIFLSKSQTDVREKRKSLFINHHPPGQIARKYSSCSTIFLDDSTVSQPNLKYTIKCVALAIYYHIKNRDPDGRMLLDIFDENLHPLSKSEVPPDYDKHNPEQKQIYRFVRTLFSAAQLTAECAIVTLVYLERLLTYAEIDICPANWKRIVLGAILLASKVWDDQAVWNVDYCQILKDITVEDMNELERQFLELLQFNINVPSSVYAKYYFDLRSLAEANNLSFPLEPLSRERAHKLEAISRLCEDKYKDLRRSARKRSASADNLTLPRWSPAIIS
UniProt O15234, whole entry, looked up: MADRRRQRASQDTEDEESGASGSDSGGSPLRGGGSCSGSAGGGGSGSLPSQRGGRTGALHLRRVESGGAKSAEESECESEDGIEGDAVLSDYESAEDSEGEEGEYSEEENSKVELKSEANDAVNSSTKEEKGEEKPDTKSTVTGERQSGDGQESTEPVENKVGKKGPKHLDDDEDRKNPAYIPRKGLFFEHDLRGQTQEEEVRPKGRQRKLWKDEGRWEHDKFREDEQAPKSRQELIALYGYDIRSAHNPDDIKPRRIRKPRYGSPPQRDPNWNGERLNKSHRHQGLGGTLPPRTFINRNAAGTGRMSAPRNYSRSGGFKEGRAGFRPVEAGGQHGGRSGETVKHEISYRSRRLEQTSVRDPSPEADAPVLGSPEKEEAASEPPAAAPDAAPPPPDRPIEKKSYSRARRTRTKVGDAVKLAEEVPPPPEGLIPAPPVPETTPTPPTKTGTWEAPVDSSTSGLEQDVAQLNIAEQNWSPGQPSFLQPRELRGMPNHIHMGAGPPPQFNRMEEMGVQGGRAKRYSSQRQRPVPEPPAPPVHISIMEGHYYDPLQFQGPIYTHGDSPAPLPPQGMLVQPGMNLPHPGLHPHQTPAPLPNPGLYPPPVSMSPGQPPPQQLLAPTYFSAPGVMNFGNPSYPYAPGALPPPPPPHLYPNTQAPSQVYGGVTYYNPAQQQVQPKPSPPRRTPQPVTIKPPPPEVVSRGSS
UniProt P24864, whole entry, looked up: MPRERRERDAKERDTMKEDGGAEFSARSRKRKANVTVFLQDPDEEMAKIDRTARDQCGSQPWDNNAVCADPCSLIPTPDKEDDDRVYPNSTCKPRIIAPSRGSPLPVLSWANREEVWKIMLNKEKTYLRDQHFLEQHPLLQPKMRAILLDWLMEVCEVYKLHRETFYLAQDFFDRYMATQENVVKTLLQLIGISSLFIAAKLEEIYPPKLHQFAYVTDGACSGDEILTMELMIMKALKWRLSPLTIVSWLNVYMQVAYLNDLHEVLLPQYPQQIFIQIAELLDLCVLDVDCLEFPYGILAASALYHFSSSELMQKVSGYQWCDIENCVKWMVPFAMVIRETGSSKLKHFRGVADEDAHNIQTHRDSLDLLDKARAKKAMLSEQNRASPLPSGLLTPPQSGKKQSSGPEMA
UniProt P48643, whole entry, looked up: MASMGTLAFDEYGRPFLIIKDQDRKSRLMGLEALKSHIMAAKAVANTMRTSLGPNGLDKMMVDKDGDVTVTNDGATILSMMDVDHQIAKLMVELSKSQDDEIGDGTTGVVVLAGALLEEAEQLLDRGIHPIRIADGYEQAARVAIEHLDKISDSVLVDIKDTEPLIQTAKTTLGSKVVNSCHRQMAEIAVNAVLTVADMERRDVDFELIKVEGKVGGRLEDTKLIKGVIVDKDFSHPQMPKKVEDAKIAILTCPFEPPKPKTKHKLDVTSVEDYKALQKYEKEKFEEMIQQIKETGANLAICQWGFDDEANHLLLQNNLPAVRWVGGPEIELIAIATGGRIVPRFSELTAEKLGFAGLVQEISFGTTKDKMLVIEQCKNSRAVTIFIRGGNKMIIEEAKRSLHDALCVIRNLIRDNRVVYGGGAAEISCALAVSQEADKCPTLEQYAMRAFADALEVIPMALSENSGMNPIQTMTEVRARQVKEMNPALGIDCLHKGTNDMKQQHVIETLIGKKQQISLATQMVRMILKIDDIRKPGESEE

Legend:
Experiment in all cases: log2 fold change, soluble protein after heating vs DMSO (PISA); higher = thermal stabilisation; K562 lysate, 10 uM; active = over 0.2 and 3.5 SD of the protein, either way, in both replicates (recomputed)
vemurafenib = compound: CCCS(=O)(=O)Nc1ccc(F)c(C(=O)c2c[nH]c3ncc(-c4ccc(Cl)cc4)cc23)c1F [vemurafenib]
Summary of the method: (§1)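 Soluble protein was defined as the supernatant remaining after 21,000xg for 90 min, following pooling of heated aliquots and adjustment to 0.5% NP-40 at 4°C. Before that, crude K562 extract at 1 mg/mL protein in PBS pH 7.4 with 1 mM MgCl2 was treated with 10 μM compound for 30 min and heated for 3 min across 48°C-58°C. Quantification used TMTpro 16plex LC-MS/MS with channel sums equalised, and values are log-two fold changes in thermal stability relative to solvent controls from duplicates.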

[1] = compound: CCCS(=O)(=O)Nc1ccc(F)c(C(=O)c2c[nH]c3ncc(Cl)cc23)c1F
Summary of the method: as §1

barasertib = compound: CCN(CCCOc1ccc2c(Nc3cc(CC(=O)Nc4cccc(F)c4)[nH]n3)ncnc2c1)CCOP(=O)(O)O [barasertib]
Summary of the method: as §1

[2] = compound: CC[C@@H]1C(=O)N(C)c2cnc(Nc3ccc(C(=O)NC4CCN(C)CC4)cc3OC)nc2N1C1CCCC1
Summary of the method: as §1

volasertib = compound: CC[C@@H]1C(=O)N(C)c2cnc(Nc3ccc(C(=O)N[C@H]4CC[C@H](N5CCN(CC6CC6)CC5)CC4)cc3OC)nc2N1C(C)C [volasertib]
Summary of the method: as §1

[3] = compound: CCn1c(C(=O)N(C2CC2)C2CC2)cc2c3c(ncn3C)c(Nc3cc(C)n(C)n3)nc21
Summary of the method: as §1

[4] = compound: CCn1cc(-c2ccnc3[nH]c(-c4cccc(CN(C)C)c4)cc23)c(-c2ccc(NC(=O)N(C)C)cc2)n1
Summary of the method: as §1

[5] = compound: CN1CCC(CNc2ccc3ncc(-c4cccc(OC(F)(F)F)c4)n3n2)CC1
Summary of the method: as §1

saracatinib = compound: CN1CCN(CCOc2cc(OC3CCOCC3)c3c(Nc4c(Cl)ccc5c4OCO5)ncnc3c2)CC1 [saracatinib]
Summary of the method: as §1

sotrastaurin = compound: CN1CCN(c2nc(C3=C(c4c[nH]c5ccccc45)C(=O)NC3=O)c3ccccc3n2)CC1 [sotrastaurin]
Summary of the method: as §1

Target | log2 fold change (vemurafenib) | log2 fold change [1] | log2 fold change (barasertib) | log2 fold change [2] | log2 fold change (volasertib) | log2 fold change [3] | log2 fold change [4] | log2 fold change [5] | log2 fold change (saracatinib) | log2 fold change (sotrastaurin)
CCT6A (UniProt P40227) | inactive: -0.026 | inactive: -0.005 | inactive: -0.03 | inactive: -0.006 | inactive: 0.024 | inactive: 0.011 | inactive: -0.024 | inactive: -0.002 | inactive: -0.004 | inactive: -0.001
CCDC117 (UniProt Q8IWD4) | inactive: 0.052 | inactive: 0.018 | inactive: -0.065 | inactive: 0.175 | inactive: -0.005 | inactive: -0.031 | inactive: -0.041 | inactive: 0.056 | inactive: 0.043 | inactive: 0.093
CD63 (UniProt P08962) | inactive: -0.079 | inactive: 0.084 | inactive: 0.037 | inactive: -0.036 | inactive: 0.023 | inactive: -0.011 | active: -0.593 | inactive: 0.175 | inactive: 0.073 | inactive: 0.057
CCDC12 (UniProt Q8WUD4) | inactive: -0.028 | inactive: -0.001 | inactive: -0.071 | inactive: 0.035 | inactive: 0.043 | inactive: -0.009 | inactive: 0.106 | inactive: 0.003 | inactive: 0.015 | inactive: 0.066
CASKIN2 (UniProt Q8WXE0) | inactive: 0.041 | inactive: -0.057 | inactive: 0.051 | inactive: 0.096 | inactive: 0.045 | inactive: 0.005 | inactive: -0.075 | inactive: 0.008 | inactive: 0.05 | inactive: -0.086
CCNH (UniProt P51946) | inactive: -0.025 | inactive: 0.001 | inactive: -0.035 | inactive: 0.036 | inactive: 0.003 | inactive: -0.034 | inactive: 0.054 | inactive: -0.062 | inactive: -0.036 | inactive: 0.033
CBX5 (UniProt P45973) | inactive: 0.028 | inactive: 0.026 | inactive: -0.025 | inactive: 0.018 | inactive: 0.016 | inactive: -0.073 | active: -0.215 | inactive: 0.066 | inactive: 0.001 | inactive: 0.016
CCDC97 (UniProt Q96F63) | inactive: 0.01 | inactive: 0.011 | inactive: -0.022 | inactive: 0.062 | inactive: -0.053 | inactive: -0.005 | inactive: 0.035 | inactive: -0.026 | inactive: 0.04 | inactive: -0.009
CBL (UniProt P22681) | inactive: 0.007 | inactive: 0.003 | inactive: -0.012 | inactive: 0.046 | inactive: 0.016 | inactive: -0.036 | inactive: 0.002 | inactive: -0.008 | inactive: 0.013 | inactive: -0.017
CBX3 (UniProt Q13185) | inactive: 0.016 | inactive: 0 | inactive: -0.016 | inactive: 0.063 | inactive: 0.027 | inactive: -0.024 | inactive: -0.066 | inactive: 0.074 | inactive: -0.027 | inactive: -0.081
CASP9 (UniProt P55211) | inactive: -0.017 | inactive: 0.001 | inactive: -0.002 | inactive: 0.025 | inactive: 0.029 | inactive: -0.061 | inactive: -0.013 | inactive: 0.005 | inactive: 0.003 | inactive: 0.045
CCNDBP1 (UniProt O95273) | inactive: -0.087 | inactive: 0.055 | inactive: 0.046 | inactive: -0.041 | inactive: -0.005 | inactive: 0.071 | inactive: 0.185 | inactive: -0.168 | inactive: 0.026 | inactive: 0.002
CCDC115 (UniProt Q96NT0) | inactive: -0.025 | inactive: 0.007 | inactive: 0.012 | inactive: 0.004 | inactive: 0 | inactive: 0.062 | inactive: -0.013 | inactive: -0.009 | inactive: -0.005 | inactive: -0.011
CCDC47 (UniProt Q96A33) | inactive: 0.011 | inactive: 0.032 | inactive: 0.002 | inactive: 0.024 | inactive: 0.014 | inactive: 0.018 | inactive: -0.02 | inactive: -0.09 | inactive: -0.003 | inactive: 0.007
CARNMT1 (UniProt Q8N4J0) | inactive: 0.04 | inactive: 0.008 | inactive: -0.012 | inactive: -0.013 | inactive: -0.005 | inactive: -0.044 | active: -0.422 | inactive: 0.063 | inactive: 0.04 | inactive: 0.017
CBWD5 (UniProt Q5RIA9) | inactive: 0.06 | inactive: 0.013 | inactive: 0.012 | inactive: -0.022 | inactive: -0.015 | inactive: -0.022 | inactive: -0.063 | inactive: -0.048 | inactive: -0.006 | inactive: -0.013
CCDC134 (UniProt Q9H6E4) | inactive: 0.013 | inactive: 0.001 | inactive: -0.131 | inactive: 0.104 | inactive: -0.017 | inactive: 0.017 | inactive: 0.004 | inactive: -0.017 | inactive: 0.02 | inactive: 0
CCDC28B (UniProt Q9BUN5) | inactive: 0.122 | inactive: 0.131 | inactive: -0.078 | inactive: 0.055 | inactive: -0.06 | inactive: 0.02 | inactive: 0.095 | inactive: -0.146 | inactive: 0.055 | inactive: 0.006
CCSMST1 (UniProt Q4G0I0) | inactive: 0.055 | inactive: 0.018 | inactive: 0.241 | inactive: -0.008 | inactive: 0.028 | inactive: 0.015 | inactive: 0.009 | inactive: -0.058 | inactive: -0.12 | inactive: 0.051
CARS isoform 3 (UniProt P49589) | inactive: 0.011 | inactive: 0.004 | inactive: -0.032 | inactive: -0.01 | inactive: -0.052 | inactive: 0.02 | inactive: 0.004 | inactive: -0.029 | inactive: 0.005 | inactive: 0.041
CCNYL1 (UniProt Q8N7R7) | inactive: -0.072 | inactive: 0.003 | inactive: -0.046 | inactive: 0.031 | inactive: -0.046 | inactive: 0.012 | inactive: -0.188 | inactive: 0.269 | inactive: 0.051 | inactive: 0.034
CCDC25 (UniProt Q86WR0) | inactive: -0.033 | inactive: 0.008 | inactive: 0.01 | inactive: 0.027 | inactive: 0.005 | inactive: -0.023 | active: 0.581 | inactive: -0.079 | inactive: 0.007 | inactive: -0.009
CD58 (UniProt P19256) | inactive: -0.09 | inactive: -0.025 | inactive: 0.02 | inactive: -0.047 | inactive: 0.021 | inactive: 0.039 | inactive: 0.048 | inactive: 0.08 | inactive: -0.01 | inactive: 0.074
CAVIN2 (UniProt O95810) | inactive: -0.011 | inactive: -0.006 | inactive: 0.003 | inactive: 0.041 | inactive: 0.026 | inactive: 0.002 | inactive: -0.038 | inactive: 0.04 | inactive: 0.013 | inactive: -0.005
CCDC28A (UniProt Q8IWP9) | inactive: 0.015 | inactive: 0.019 | inactive: -0.008 | inactive: 0.11 | inactive: -0.055 | inactive: -0.062 | inactive: 0.112 | inactive: -0.042 | inactive: -0.038 | inactive: 0.03
CCNY (UniProt Q8ND76) | inactive: -0.011 | inactive: 0 | inactive: -0.016 | inactive: -0.148 | inactive: 0.036 | inactive: -0.103 | inactive: 0.032 | inactive: 0.037 | inactive: 0.063 | inactive: 0.025
CCT2 (UniProt P78371) | inactive: -0.022 | inactive: -0.011 | inactive: -0.042 | inactive: -0.015 | inactive: 0.01 | inactive: -0.005 | inactive: 0.03 | inactive: -0.02 | inactive: -0.007 | inactive: -0.018
CASC3 (UniProt O15234) | inactive: 0.017 | inactive: 0 | inactive: -0.015 | inactive: 0.105 | inactive: 0.01 | inactive: 0.046 | inactive: -0.035 | inactive: 0.046 | inactive: 0.064 | inactive: -0.012
CCNE1 (UniProt P24864) | inactive: -0.018 | inactive: 0.037 | inactive: -0.02 | inactive: 0.211 | inactive: 0.004 | inactive: 0.004 | inactive: -0.055 | inactive: 0.06 | inactive: 0.021 | inactive: -0.15
CCT5 (UniProt P48643) | inactive: -0.029 | inactive: -0.009 | inactive: -0.03 | inactive: -0.026 | inactive: 0.007 | inactive: 0.006 | inactive: -0.009 | inactive: 0.043 | inactive: -0.009 | inactive: -0.004

Record cards, from the list above. Values in the order: log2 fold change (vemurafenib)	log2 fold change [1]	log2 fold change (barasertib)	log2 fold change [2]	log2 fold change (volasertib)	log2 fold change [3]	log2 fold change [4]	log2 fold change [5]	log2 fold change (saracatinib)	log2 fold change (sotrastaurin)
CCDC117 (UniProt Q8IWD4) is listed with inactive: 0.052	inactive: 0.018	inactive: -0.065	inactive: 0.175	inactive: -0.005	inactive: -0.031	inactive: -0.041	inactive: 0.056	inactive: 0.043	inactive: 0.093
CCNH (UniProt P51946) is listed with inactive: -0.025	inactive: 0.001	inactive: -0.035	inactive: 0.036	inactive: 0.003	inactive: -0.034	inactive: 0.054	inactive: -0.062	inactive: -0.036	inactive: 0.033
